# Assay results from the supplement of paper PMC6411743.
# Amino acid sequences for entries named in this document (tags omitted). A change or cut given only in a name is not applied to a line headed by its entry.
# UniProt Q92600, whole entry: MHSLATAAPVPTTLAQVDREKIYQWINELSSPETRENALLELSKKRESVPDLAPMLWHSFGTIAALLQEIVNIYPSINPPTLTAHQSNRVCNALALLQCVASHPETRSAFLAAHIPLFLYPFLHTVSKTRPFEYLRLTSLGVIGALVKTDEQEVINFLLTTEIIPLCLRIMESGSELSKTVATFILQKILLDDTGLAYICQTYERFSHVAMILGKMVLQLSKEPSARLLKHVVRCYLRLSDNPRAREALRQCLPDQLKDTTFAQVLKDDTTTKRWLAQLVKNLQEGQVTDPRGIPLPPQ
# UniProt Q93052: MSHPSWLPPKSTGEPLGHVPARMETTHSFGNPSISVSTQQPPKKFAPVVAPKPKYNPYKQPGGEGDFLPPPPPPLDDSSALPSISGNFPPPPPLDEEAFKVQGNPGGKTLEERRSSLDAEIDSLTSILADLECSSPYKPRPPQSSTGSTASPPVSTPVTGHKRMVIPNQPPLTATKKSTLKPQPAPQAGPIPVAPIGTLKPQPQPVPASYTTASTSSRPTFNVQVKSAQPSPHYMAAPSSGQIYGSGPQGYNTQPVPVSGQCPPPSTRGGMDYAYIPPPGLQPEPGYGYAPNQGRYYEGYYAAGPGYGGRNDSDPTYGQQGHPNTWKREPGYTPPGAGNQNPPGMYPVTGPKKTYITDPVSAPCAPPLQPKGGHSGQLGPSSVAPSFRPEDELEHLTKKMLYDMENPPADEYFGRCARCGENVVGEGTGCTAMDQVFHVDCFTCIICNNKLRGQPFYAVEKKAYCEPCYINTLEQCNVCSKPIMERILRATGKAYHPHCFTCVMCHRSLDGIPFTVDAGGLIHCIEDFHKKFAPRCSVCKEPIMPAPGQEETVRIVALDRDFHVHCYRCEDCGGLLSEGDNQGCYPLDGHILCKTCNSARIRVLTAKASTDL
# UniProt Q8TC07: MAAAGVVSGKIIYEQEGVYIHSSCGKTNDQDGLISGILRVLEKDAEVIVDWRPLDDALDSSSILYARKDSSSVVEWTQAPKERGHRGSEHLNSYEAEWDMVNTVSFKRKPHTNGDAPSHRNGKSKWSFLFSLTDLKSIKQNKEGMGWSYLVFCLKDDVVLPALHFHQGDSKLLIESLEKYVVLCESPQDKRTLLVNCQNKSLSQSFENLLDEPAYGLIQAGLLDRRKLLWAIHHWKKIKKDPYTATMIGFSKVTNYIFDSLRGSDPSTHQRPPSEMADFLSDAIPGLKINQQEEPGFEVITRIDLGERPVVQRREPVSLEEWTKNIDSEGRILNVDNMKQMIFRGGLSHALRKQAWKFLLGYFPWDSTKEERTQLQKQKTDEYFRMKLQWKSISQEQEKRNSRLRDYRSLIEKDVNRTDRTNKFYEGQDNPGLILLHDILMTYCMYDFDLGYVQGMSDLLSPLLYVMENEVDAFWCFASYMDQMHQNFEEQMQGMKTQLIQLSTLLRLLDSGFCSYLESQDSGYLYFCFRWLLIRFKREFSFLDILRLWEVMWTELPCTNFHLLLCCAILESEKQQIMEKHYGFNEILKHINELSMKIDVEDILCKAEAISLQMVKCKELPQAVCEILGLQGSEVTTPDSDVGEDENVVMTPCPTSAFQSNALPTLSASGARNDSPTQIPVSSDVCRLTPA
# UniProt Q8WUX9: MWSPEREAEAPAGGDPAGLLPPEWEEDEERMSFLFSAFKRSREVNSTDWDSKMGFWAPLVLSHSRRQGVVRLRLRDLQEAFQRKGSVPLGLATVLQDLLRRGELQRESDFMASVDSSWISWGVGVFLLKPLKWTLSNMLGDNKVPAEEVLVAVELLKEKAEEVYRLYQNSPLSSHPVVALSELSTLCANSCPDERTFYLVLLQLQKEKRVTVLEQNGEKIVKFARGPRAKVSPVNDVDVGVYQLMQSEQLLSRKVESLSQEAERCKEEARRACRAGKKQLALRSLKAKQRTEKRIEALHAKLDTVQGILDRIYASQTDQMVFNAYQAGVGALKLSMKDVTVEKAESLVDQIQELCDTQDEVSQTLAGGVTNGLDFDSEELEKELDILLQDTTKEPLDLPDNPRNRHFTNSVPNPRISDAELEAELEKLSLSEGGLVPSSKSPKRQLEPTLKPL
# UniProt Q92610: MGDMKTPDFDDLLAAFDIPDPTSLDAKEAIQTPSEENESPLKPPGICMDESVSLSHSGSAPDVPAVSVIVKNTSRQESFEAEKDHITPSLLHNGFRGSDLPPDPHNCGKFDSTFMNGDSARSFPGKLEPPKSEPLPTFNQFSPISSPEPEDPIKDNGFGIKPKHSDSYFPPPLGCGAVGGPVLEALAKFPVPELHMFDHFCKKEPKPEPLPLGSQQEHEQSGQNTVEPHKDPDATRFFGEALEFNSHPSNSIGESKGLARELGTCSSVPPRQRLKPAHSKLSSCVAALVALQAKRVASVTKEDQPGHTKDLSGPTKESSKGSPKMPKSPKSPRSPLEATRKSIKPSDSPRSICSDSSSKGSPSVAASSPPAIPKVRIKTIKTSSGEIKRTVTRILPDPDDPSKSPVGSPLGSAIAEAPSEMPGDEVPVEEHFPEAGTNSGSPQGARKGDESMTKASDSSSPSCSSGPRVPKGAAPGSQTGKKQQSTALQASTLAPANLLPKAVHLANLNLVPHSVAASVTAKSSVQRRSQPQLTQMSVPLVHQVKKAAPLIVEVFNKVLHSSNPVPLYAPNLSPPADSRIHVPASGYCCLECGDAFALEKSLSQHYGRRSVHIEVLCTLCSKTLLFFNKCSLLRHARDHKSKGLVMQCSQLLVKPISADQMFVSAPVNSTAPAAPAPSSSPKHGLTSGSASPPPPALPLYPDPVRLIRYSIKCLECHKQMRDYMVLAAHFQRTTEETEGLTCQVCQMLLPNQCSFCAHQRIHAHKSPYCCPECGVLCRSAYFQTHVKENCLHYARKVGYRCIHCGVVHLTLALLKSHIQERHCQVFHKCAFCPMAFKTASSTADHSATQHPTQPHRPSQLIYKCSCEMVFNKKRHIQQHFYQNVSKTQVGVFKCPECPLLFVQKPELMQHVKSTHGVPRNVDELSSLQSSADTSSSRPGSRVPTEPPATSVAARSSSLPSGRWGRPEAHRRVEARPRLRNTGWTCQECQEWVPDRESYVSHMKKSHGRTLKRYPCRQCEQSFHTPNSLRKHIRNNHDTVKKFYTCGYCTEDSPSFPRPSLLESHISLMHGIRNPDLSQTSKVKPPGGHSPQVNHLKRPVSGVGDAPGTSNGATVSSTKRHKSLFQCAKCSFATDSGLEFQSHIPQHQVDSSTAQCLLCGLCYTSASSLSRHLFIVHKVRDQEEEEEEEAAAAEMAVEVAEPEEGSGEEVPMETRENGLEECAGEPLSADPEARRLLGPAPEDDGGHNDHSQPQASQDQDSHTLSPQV
# UniProt Q969Y2: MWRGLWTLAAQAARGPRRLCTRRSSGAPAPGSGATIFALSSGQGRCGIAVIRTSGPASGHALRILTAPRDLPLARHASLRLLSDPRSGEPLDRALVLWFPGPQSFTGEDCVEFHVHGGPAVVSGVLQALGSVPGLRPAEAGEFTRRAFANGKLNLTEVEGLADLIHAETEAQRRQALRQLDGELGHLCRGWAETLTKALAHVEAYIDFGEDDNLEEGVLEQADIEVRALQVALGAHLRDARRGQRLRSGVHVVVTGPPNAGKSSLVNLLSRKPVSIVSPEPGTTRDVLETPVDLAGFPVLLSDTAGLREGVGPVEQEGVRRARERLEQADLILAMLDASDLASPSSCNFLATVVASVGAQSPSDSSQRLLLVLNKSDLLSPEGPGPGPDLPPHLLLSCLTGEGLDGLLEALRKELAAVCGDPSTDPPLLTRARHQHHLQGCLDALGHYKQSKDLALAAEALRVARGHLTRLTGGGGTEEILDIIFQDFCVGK
# UniProt Q969E2: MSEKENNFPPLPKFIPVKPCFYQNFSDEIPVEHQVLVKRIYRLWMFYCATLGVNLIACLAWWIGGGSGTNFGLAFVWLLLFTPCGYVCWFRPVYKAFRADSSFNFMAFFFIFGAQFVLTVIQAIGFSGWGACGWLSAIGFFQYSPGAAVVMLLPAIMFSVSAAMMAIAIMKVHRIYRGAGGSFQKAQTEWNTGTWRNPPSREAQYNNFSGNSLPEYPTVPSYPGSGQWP
# UniProt Q92608: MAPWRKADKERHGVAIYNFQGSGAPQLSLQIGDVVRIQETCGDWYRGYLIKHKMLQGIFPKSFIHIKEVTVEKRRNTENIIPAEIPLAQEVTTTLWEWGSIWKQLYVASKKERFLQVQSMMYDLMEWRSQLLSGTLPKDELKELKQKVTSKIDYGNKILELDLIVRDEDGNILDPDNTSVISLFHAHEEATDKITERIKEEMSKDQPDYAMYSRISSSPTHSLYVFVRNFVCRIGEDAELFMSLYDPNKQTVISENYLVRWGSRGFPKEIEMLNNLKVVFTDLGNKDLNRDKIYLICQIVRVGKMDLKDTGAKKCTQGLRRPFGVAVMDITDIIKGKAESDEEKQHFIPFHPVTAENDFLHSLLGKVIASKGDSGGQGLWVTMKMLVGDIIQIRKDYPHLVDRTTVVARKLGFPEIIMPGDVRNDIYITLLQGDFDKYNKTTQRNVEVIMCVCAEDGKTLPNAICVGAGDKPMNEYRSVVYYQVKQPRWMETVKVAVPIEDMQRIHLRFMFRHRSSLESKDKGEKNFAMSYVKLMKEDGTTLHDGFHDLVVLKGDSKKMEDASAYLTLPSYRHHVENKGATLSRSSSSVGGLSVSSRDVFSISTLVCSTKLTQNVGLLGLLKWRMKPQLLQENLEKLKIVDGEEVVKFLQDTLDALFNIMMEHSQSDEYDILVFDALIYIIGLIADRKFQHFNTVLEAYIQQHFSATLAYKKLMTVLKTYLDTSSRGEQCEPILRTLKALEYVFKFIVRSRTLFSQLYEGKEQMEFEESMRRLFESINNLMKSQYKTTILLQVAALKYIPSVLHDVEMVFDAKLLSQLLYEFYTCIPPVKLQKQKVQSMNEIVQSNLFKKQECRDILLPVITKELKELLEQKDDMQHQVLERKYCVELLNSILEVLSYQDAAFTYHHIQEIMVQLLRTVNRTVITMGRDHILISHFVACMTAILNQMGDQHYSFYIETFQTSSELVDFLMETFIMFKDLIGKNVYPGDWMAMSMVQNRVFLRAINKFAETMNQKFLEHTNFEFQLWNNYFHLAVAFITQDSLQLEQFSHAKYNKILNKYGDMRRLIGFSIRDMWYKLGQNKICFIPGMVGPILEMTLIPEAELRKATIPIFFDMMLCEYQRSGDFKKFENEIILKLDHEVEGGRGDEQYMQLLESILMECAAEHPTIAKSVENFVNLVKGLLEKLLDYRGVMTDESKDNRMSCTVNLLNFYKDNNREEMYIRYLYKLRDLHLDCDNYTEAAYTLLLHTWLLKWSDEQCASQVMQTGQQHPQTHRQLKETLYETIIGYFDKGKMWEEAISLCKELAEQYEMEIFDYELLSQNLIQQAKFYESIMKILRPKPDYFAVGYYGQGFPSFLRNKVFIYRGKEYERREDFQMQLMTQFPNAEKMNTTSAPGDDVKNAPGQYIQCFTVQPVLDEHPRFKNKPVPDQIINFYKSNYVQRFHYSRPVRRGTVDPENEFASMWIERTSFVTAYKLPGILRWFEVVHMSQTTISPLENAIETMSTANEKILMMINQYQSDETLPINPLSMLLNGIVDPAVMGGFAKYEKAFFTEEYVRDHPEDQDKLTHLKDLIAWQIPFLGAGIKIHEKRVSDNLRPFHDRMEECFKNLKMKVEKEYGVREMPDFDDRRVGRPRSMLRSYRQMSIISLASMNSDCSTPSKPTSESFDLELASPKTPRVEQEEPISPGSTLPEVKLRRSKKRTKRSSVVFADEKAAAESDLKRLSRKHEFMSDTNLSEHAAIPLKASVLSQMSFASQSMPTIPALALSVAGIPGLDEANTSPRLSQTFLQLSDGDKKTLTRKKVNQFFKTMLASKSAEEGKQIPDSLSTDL
# UniProt Q8WWY3: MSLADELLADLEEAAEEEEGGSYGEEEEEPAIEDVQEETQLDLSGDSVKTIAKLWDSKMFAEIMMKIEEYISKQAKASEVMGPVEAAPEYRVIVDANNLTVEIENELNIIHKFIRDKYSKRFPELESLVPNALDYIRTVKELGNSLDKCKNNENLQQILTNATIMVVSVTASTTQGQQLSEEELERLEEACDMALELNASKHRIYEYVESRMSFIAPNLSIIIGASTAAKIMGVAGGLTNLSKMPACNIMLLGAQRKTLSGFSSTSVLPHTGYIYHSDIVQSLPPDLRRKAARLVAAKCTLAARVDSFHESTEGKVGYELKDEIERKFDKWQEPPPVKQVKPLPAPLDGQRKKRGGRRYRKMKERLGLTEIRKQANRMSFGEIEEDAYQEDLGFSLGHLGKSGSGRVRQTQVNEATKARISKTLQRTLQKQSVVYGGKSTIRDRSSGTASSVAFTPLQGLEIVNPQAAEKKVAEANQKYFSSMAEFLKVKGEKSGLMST
# UniProt Q92623: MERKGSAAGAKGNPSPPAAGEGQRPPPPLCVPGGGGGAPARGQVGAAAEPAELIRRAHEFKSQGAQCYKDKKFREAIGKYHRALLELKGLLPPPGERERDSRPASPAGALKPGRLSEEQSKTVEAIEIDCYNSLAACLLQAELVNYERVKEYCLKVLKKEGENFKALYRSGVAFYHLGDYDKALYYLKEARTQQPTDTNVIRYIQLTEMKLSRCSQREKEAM
# ± gives the standard deviation of the averaged measurements. This is a selection; strong and weak results do not stand in their true shares.
# Compound: Nc1ncnc2c1ncn2[C@@H]1O[C@H](COP(=O)(O)OP(=O)(O)OP(=O)(O)O)[C@@H](O)[C@H]1O [adenosine triphosphate]
# Test: NP40-soluble protein abundance relative to vehicle (solubility fold change) (ratio); higher = more soluble protein in presence of ATP
# In short: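 Crude Jurkat lysate, prepared by Dounce homogenisation, was exposed to eight concentrations from 0.1 to 10 mM for 10 min at room temperature and then 3 min at 37 °C. Solubilisation used 0.8% NP40 with benzonase for 60 min at 4 °C, followed by ultracentrifugation and TMT labelling of the supernatant for LC-MS/MS. After vsn normalisation of intensities, each value is the fold change against the detergent-processed vehicle within each replicate, across three independent experiments.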
Target,NP40-soluble protein abundance (concentration: 1mM),NP40-soluble protein abundance (concentration: 2mM),NP40-soluble protein abundance (concentration: 4mM),NP40-soluble protein abundance (concentration: 6mM),NP40-soluble protein abundance (concentration: 8mM),NP40-soluble protein abundance (concentration: 10mM)
UniProt Q92674,1.1 ± 0.15,1.04 ± 0.2,1.3 ± 0.35,1.17 ± 0.37,1.35 ± 0.62,1.29 ± 0.38
OSTF1 (UniProt Q92882),0.964 ± 0.024,0.961 ± 0.059,0.924 ± 0.045,0.952 ± 0.04,0.954 ± 0.063,0.915 ± 0.042
UniProt Q92738 and related entries,1.04 ± 0.11,1.06 ± 0.025,1.05 ± 0.016,1.083 ± 0.006,1.08 ± 0.024,1.08 ± 0.061
UniProt Q92600 and related entries,1.07 ± 0.12,1.12 ± 0.064,1.35 ± 0.065,1.4 ± 0.3,1.44 ± 0.065,1.24 ± 0.26
UniProt Q92538 and related entries,0.976 ± 0.045,0.944 ± 0.018,0.93 ± 0.028,0.929 ± 0.0095,0.937 ± 0.037,0.923 ± 0.0097
MAML1 (UniProt Q92585),0.955 ± 0.077,0.94 ± 0.062,0.974 ± 0.043,0.968 ± 0.033,0.954 ± 0.11,0.923 ± 0.11
UniProt Q92878 and related entries,1.07 ± 0.028,1.06 ± 0.013,1.04 ± 0.015,1.08 ± 0.026,1.04 ± 0.013,1.04 ± 0.019
UniProt Q92636 and related entries,1.08 ± 0.15,1.04 ± 0.12,1.05 ± 0.088,0.959 ± 0.14,1.07 ± 0.051,1.03 ± 0.067
UniProt Q92615,1.11 ± 0.065,1.13 ± 0.06,1.21 ± 0.045,1.22 ± 0.12,1.22 ± 0.079,1.29 ± 0.092
UniProt Q92783 and related entries,0.951 ± 0.033,0.964 ± 0.0032,0.913 ± 0.013,0.9663 ± 0.0095,0.915 ± 0.013,0.902 ± 0.022
SMG7 (UniProt Q92540),0.91 ± 0.075,0.961 ± 0.041,0.957 ± 0.071,0.999 ± 0.097,0.959 ± 0.059,0.992 ± 0.048
EXOSC8 (UniProt Q96B26),1.051 ± 0.0096,1.09 ± 0.032,1.099 ± 0.0098,1.18 ± 0.019,1.19 ± 0.035,1.24 ± 0.078
UniProt Q8TBZ6,1.08 ± 0.045,1.08 ± 0.043,1.1 ± 0.031,1.18 ± 0.07,1.07 ± 0.03,1.09 ± 0.043
UniProt Q96BD8,0.936 ± 0.062,0.931 ± 0.043,0.917 ± 0.045,0.974 ± 0.086,0.967 ± 0.029,0.909 ± 0.11
H1FX (UniProt Q92522),0.974 ± 0.1,0.917 ± 0.043,0.959 ± 0.079,1.05 ± 0.069,1.02 ± 0.013,1.05 ± 0.1
UniProt Q92599,1.07 ± 0.13,1.02 ± 0.14,0.996 ± 0.067,1.02 ± 0.17,1.02 ± 0.078,0.958 ± 0.052
PLEKHO2 (UniProt Q8TD55),0.949 ± 0.058,0.939 ± 0.062,0.923 ± 0.056,0.986 ± 0.068,0.927 ± 0.024,0.926 ± 0.06
GEMIN5 (UniProt Q8TEQ6),1.04 ± 0.1,1.01 ± 0.068,1.01 ± 0.046,0.93 ± 0.079,1.02 ± 0.018,1.02 ± 0.053
OVCA2 (UniProt Q8WZ82),1.07 ± 0.15,1.05 ± 0.16,0.966 ± 0.16,1.06 ± 0.17,0.994 ± 0.3,1.02 ± 0.31
UniProt Q8WU76 and related entries,0.975 ± 0.1,0.983 ± 0.064,0.955 ± 0.033,0.914 ± 0.082,0.986 ± 0.063,0.946 ± 0.028

# Two records drawn at random from the list so far, as already listed:
Target,NP40-soluble protein abundance (concentration: 1mM),NP40-soluble protein abundance (concentration: 2mM),NP40-soluble protein abundance (concentration: 4mM),NP40-soluble protein abundance (concentration: 6mM),NP40-soluble protein abundance (concentration: 8mM),NP40-soluble protein abundance (concentration: 10mM)
UniProt Q92878 and related entries,1.07 ± 0.028,1.06 ± 0.013,1.04 ± 0.015,1.08 ± 0.026,1.04 ± 0.013,1.04 ± 0.019
UniProt Q8WU76 and related entries,0.975 ± 0.1,0.983 ± 0.064,0.955 ± 0.033,0.914 ± 0.082,0.986 ± 0.063,0.946 ± 0.028

# The results go on:

Target,NP40-soluble protein abundance (concentration: 1mM),NP40-soluble protein abundance (concentration: 2mM),NP40-soluble protein abundance (concentration: 4mM),NP40-soluble protein abundance (concentration: 6mM),NP40-soluble protein abundance (concentration: 8mM),NP40-soluble protein abundance (concentration: 10mM)
ISG20 (UniProt Q96AZ6),1.12 ± 0.14,1.07 ± 0.11,1.2 ± 0.19,1.14 ± 0.14,1.12 ± 0.16,1.1 ± 0.12
ZCRB1 (UniProt Q8TBF4),1.02 ± 0.11,0.989 ± 0.059,1 ± 0.052,1.02 ± 0.024,1 ± 0.12,0.967 ± 0.086
UniProt Q92530 and related entries,0.964 ± 0.053,0.941 ± 0.026,0.943 ± 0.075,0.901 ± 0.052,0.915 ± 0.051,0.916 ± 0.029
UniProt Q8TBF2-6|A0A0A0MT35|Q8TBF2-8,1 ± 0.056,0.982 ± 0.068,1.01 ± 0.03,0.922 ± 0.062,0.976 ± 0.063,0.986 ± 0.025
UniProt Q969N2 and related entries,0.915 ± 0.085,0.935 ± 0.076,0.931 ± 0.028,0.893 ± 0.07,0.917 ± 0.024,0.978 ± 0.054
UniProt Q8TEQ0 and related entries,0.977 ± 0.038,1.04 ± 0.025,1.01 ± 0.018,1 ± 0.039,0.987 ± 0.048,1 ± 0.069
LPP (UniProt Q93052),0.989 ± 0.077,0.964 ± 0.073,0.972 ± 0.092,0.949 ± 0.05,0.927 ± 0.06,0.945 ± 0.05
UniProt Q8TDD1 and related entries,1.09 ± 0.04,1.15 ± 0.019,1.19 ± 0.016,1.24 ± 0.07,1.32 ± 0.021,1.42 ± 0.091
DDB2 (UniProt Q92466),0.963 ± 0.066,0.996 ± 0.074,0.97 ± 0.077,0.92 ± 0.063,1.01 ± 0.061,0.998 ± 0.041
GTF3C6 (UniProt Q969F1),1.03 ± 0.044,1.02 ± 0.02,1.03 ± 0.039,1.02 ± 0.067,1.02 ± 0.021,1.02 ± 0.034
UniProt Q8WUI4 and related entries,1.01 ± 0.017,0.999 ± 0.038,1.02 ± 0.029,1.01 ± 0.023,0.9815 ± 0.008,0.999 ± 0.017
UniProt Q8TC07 and related entries,0.989 ± 0.09,0.989 ± 0.058,0.993 ± 0.054,0.954 ± 0.072,1 ± 0.064,0.986 ± 0.051
CHMP7 (UniProt Q8WUX9),0.977 ± 0.055,0.967 ± 0.046,0.933 ± 0.028,0.9584 ± 0.0079,0.91 ± 0.023,0.9232 ± 0.0053
TSR2 (UniProt Q969E8),0.967 ± 0.037,0.987 ± 0.035,1.06 ± 0.018,1.17 ± 0.03,1.13 ± 0.019,1.08 ± 0.14
EXOC4 (UniProt Q96A65),1.01 ± 0.02,0.989 ± 0.029,0.99 ± 0.024,0.976 ± 0.014,0.999 ± 0.041,0.995 ± 0.062
GEMIN6 (UniProt Q8WXD5),0.986 ± 0.041,0.832 ± 0.14,0.883 ± 0.015,0.882 ± 0.081,0.871 ± 0.047,0.827 ± 0.02
CHAC2 (UniProt Q8WUX2),0.994 ± 0.12,1.03 ± 0.032,1.06 ± 0.035,0.954 ± 0.079,0.997 ± 0.034,0.975 ± 0.059
ZNF592 (UniProt Q92610),1.02 ± 0.057,1.01 ± 0.086,1.07 ± 0.074,1.11 ± 0.18,1.06 ± 0.13,1.12 ± 0.15
ARPC1A (UniProt Q92747),1.01 ± 0.15,1.05 ± 0.12,1.05 ± 0.1,0.939 ± 0.11,1.01 ± 0.038,1.03 ± 0.038
ZUP1 (UniProt Q96AP4),0.957 ± 0.06,0.991 ± 0.063,0.951 ± 0.1,0.947 ± 0.088,0.967 ± 0.072,0.953 ± 0.055

Target,NP40-soluble protein abundance (concentration: 1mM),NP40-soluble protein abundance (concentration: 2mM),NP40-soluble protein abundance (concentration: 4mM),NP40-soluble protein abundance (concentration: 6mM),NP40-soluble protein abundance (concentration: 8mM),NP40-soluble protein abundance (concentration: 10mM)
CUL5 (UniProt Q93034),1.05 ± 0.1,1.01 ± 0.09,1.01 ± 0.076,0.933 ± 0.1,1.02 ± 0.023,0.991 ± 0.067
UniProt Q8TBN0 and related entries,0.893 ± 0.1,0.943 ± 0.052,1.06 ± 0.11,1.16 ± 0.12,0.917 ± 0.01,0.943 ± 0.061
UniProt Q969Y2 and related entries,0.966 ± 0.038,0.989 ± 0.01,0.954 ± 0.024,0.973 ± 0.036,0.952 ± 0.038,0.967 ± 0.015
RAB8B (UniProt Q92930),0.99 ± 0.053,0.97 ± 0.075,0.928 ± 0.053,0.99 ± 0.094,0.951 ± 0.068,0.954 ± 0.057
UniProt Q92567 and related entries,0.794 ± 0.016,0.927 ± 0.11,0.78 ± 0.029,0.882 ± 0.12,0.733 ± 0.044,0.828 ± 0.086
UniProt Q969E2 and related entries,0.996 ± 0.013,1.01 ± 0.087,1.12 ± 0.064,1.03 ± 0.082,1.01 ± 0.11,1 ± 0.071
DOCK2 (UniProt Q92608),1.17 ± 0.12,1.14 ± 0.088,1.14 ± 0.072,1.07 ± 0.089,1.21 ± 0.054,1.13 ± 0.032
UniProt Q8TBB5 and related entries,1 ± 0.036,1.01 ± 0.014,0.987 ± 0.024,1.02 ± 0.029,0.9889 ± 0.0054,1.017 ± 0.0077
UniProt Q8TCT9 and related entries,0.956 ± 0.066,0.988 ± 0.03,0.951 ± 0.05,0.918 ± 0.07,0.93 ± 0.031,0.934 ± 0.049
UniProt Q96BD5 and related entries,1.018 ± 0.0095,0.969 ± 0.037,1.03 ± 0.063,0.997 ± 0.077,1.03 ± 0.044,0.996 ± 0.033
DDX1 (UniProt Q92499),1.01 ± 0.043,0.988 ± 0.052,1 ± 0.054,1.01 ± 0.074,1.07 ± 0.051,1.04 ± 0.039
UniProt Q8WUB8 and related entries,1.2 ± 0.026,1.21 ± 0.058,1.26 ± 0.073,1.33 ± 0.17,1.29 ± 0.05,1.31 ± 0.022
RAB2B (UniProt Q8WUD1),0.972 ± 0.072,0.997 ± 0.09,0.951 ± 0.051,0.956 ± 0.11,0.961 ± 0.029,0.971 ± 0.077
RFK (UniProt Q969G6),0.998 ± 0.054,0.966 ± 0.074,0.944 ± 0.057,0.974 ± 0.074,0.947 ± 0.079,0.905 ± 0.043
UniProt Q92581-3|Q92581-2,0.952 ± 0.13,1.02 ± 0.079,1.02 ± 0.11,1.03 ± 0.1,0.922 ± 0.1,1.02 ± 0.15
PRPF31 (UniProt Q8WWY3),1.07 ± 0.055,1.08 ± 0.045,1.05 ± 0.03,1.15 ± 0.048,1.09 ± 0.027,1.12 ± 0.018
UniProt Q92623,0.953 ± 0.096,0.948 ± 0.092,0.979 ± 0.02,0.976 ± 0.042,0.956 ± 0.045,0.895 ± 0.13
GPKOW (UniProt Q92917),1.05 ± 0.06,1.03 ± 0.041,1.02 ± 0.04,1.08 ± 0.026,1.02 ± 0.026,1.01 ± 0.033
NANP (UniProt Q8TBE9),1.04 ± 0.036,1.07 ± 0.033,1.03 ± 0.012,0.987 ± 0.042,1 ± 0.032,0.985 ± 0.034
CORO2A (UniProt Q92828),1.04 ± 0.057,1.11 ± 0.2,1.18 ± 0.25,1.27 ± 0.28,1.31 ± 0.36,1.3 ± 0.25
